# PubChem BioAssay AID504444 (National Center for Advancing Translational Sciences (NCATS), 2011)
# Screen size: about 360,000 compounds; about 7,500 (2.1%) were called active. Inconclusive results, whose numbers are uncertain, are shown with a selection of clear calls. Calls follow the shape of the dose curve; as a rule, active = well fitted inhibition curve with a large enough effect; inconclusive = small, poorly fitted or top-dose-only effect, or effect the other way; inactive = flat fitted curve, though single readings scatter. Where the call is inconclusive, the potency comes from a doubtful curve fit.
# Assay: Nrf2 qHTS screen for inhibitors; also: nearly all actives have a fitted effect of over 60% in size
# Conditions: A549 ARE-Fluc reporter, luciferase luminescence, 18-24 h; activity change, negative = inhibition: at 46 µM (top of the series)
# How it was run: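 A549 ARE_Fluc cells, 5000/well, 5% FBS OPTI-MEM; compounds in dose-response, 18-24 h at 37 °C/5% CO2; CellTiter-Fluor viability read (Ex 405/Em 525), then BugLite luciferase luminescence = Nrf2 activity.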
# % is scaled to controls: 0 for no effect and ±100 for the full control effect; potency is read from the fitted curve at half-maximal effect.
Compound,Potency,"activity change, negative = inhibition"
CCc1ccc2[nH]c(C(=O)Nc3ccc(Br)c(C)n3)cc2c1,"inconclusive: 5.17 µM [activator, full curve]",–
O=C(Nc1ccccc1F)c1ccc2c(c1)OCO2,"inconclusive: 23.1 µM [activator, partial curve]",–
O=C(N/N=C/c1ccccc1F)c1csc2c1CCCC2,"inconclusive: 0.92 µM [activator, full curve]",–
CCNC(=O)Nc1cc(S(=O)(=O)Nc2ccc(OC)cc2)ccc1N1CCOCC1,active: 4.11 µM,–
COc1cc([N+](=O)[O-])ccc1NC(=O)C[n+]1ccccc1C,"inconclusive: 14.6 µM [falling, partial curve, poor fit]",–
CCNC(=O)C1CCN(c2nnc(C)c3c(C)n(-c4ccc(OC)cc4)nc23)CC1,"inconclusive: 18.4 µM [activator, single point]",–
Cc1cc(SCC(=O)NC2CC2)nc2ccccc12,inactive,–
Cc1c(C(=O)Nc2ccncc2)oc2c1C(=O)CC(C)(C)C2,"inconclusive: 25.9 µM [falling, partial curve, poor fit]",–
CC(C)Oc1ccccc1C1Nc2ccccc2C(=O)N1c1ccc2c(c1)OCCO2 (stereo not drawn),"inconclusive: 0.82 µM [activator, full curve, poor fit]",–
CNC(=O)C1CCN(S(=O)(=O)c2c(C)noc2/C=C/N(C)C)CC1,inactive,–
CC(=O)c1ccc(OCC(O)CN(C)CCOc2ccc(Br)cc2)cc1 (stereo not drawn),active: 18.4 µM,–
CCC(C)NC(=O)c1cc(-c2ccccc2O)on1 (stereo not drawn),"inconclusive: 16.4 µM [activator, single point]",–
CCOC(=O)c1ccc(NC(=S)N(CCN(C)C)C(C)c2ccncc2)cc1 (stereo not drawn),inactive,–
O=C1CSC(=NC(=O)c2ccccc2)N1,"inconclusive: 1.16 µM [activator, full curve, poor fit]",–
CN1C(=O)/C(=C/C=C2\SCCN2C)OC1=S,"inconclusive: 6.51 µM [activator, partial curve]",–
COc1ccc(S(=O)(=O)N2CCCCCC2)cc1NC(=O)Cc1n[nH]c(=O)c2ccccc12,"inconclusive: 23.1 µM [falling, partial curve]",–
Cc1ccc(S(=O)(=O)N2CCCC(C(=O)NNCC(=O)Nc3cc(F)ccc3F)C2)cc1 (stereo not drawn),"inconclusive: 29.1 µM [falling, partial curve, poor fit]",–
CCC(COC)NC(=O)CCc1nnc(Cc2cccc(C(F)(F)F)c2)o1 (stereo not drawn),"inconclusive: 29.1 µM [activator, single point]",–
CCOc1ccc(CCNC(=O)c2nnn(CC(=O)Nc3ccc(OC)c(OC)c3)c2N)cc1OCC,inactive,–
Cc1ccc(CN(C)S(=O)(=O)c2c(C)noc2/C=C/N(C)C)cc1,"inconclusive: 29.1 µM [activator, single point]",–
Cc1ccc(NC(=S)N2CCC(C(=O)c3ccc(F)cc3)CC2)cc1C,"inconclusive: 32.6 µM [falling, partial curve, poor fit]",–
Cc1ccc(OCc2ccc(-c3ccccc3)cc2)c([N+](=O)[O-])n1,"inconclusive: 18.4 µM [falling, partial curve]",–
CC(=O)N(C)c1ccc(C=C2C=Cc3ccccc32)cc1,"inconclusive: 0.366 µM [activator, full curve, poor fit]",–

Compound,Potency,"activity change, negative = inhibition"
CN(C)S(=O)(=O)c1ccc(Cl)c(NC(=O)CN2CCN(Cc3ccc4c(c3)OCO4)CC2)c1,"inconclusive: 29.1 µM [falling, single point]",–
CCC(C)Nc1oc(-c2ccc(COc3ccc(Cl)cc3)o2)nc1C#N (stereo not drawn),"inconclusive: 23.1 µM [falling, single point]",–
CCCCCCCCCC[N+](C)(C)CC/C=C1/c2ccccc2Sc2ccc(Cl)cc21,"inconclusive: 29.1 µM [falling, single point]",–
Cc1[nH]nc2c1C(c1ccc(-c3ccccc3C#N)o1)C(C#N)=C(N)O2 (stereo not drawn),"inconclusive: 16.4 µM [falling, single point]",–
Cn1c(=O)c2c(nc(Cl)n2CCOc2ccccc2)n(C)c1=O,active: 25.9 µM,–
O=C(CSc1n[nH]c(-c2ccccc2)n1)Nc1ncccn1,inactive,–
CCn1cc(C(=O)NCc2ccc(C)cc2)c(=O)c2cc(S(=O)(=O)N(C)C3CCCCC3)ccc21,"inconclusive: 18.4 µM [falling, single point]",–
CCN(CC)c1nc2c(S(=O)(=O)c3cccc(Cl)c3)nnn2c2ccsc12,"inconclusive: 29.1 µM [falling, single point]",–
COc1ccc(S(=O)(=O)c2c(SC)nn(CC(=O)Nc3cccc(C)c3C)c2N)cc1,"inconclusive: 14.6 µM [falling, partial curve]",–
COc1ccc(C(=O)c2c(N)sc3c2CCN(C(=O)OC(C)(C)C)C3)cc1,"inconclusive: 10.3 µM [falling, partial curve]",–
CCN1/C(=C/c2ccc3ccccc3[n+]2CC)C=Cc2ccccc21,active: 2.91 µM,–
NCCCN(Cc1ccc(Cl)c(Cl)c1)c1ccccn1,inactive,–
O=C1c2ccccc2C(=O)N1CCCCN(C(=O)c1cccc([N+](=O)[O-])c1)c1ccc(Cl)cc1,"inconclusive: 4.61 µM [falling, full curve, poor fit]",–
CN(C)c1ccc(S(=O)(=O)N(C)C)cc1NC(=O)Cc1cccc2ccccc12,"inconclusive: 29.1 µM [falling, single point]",–
O=C(CNc1cccc(S(=O)(=O)N2CCOCC2)c1)Nc1cccc(Br)c1,"inconclusive: 29.1 µM [falling, single point]",–
COc1ccc(Oc2coc3c(CN(C)C)c(O)ccc3c2=O)cc1,inactive,–
COc1ccc(CNC(=O)Cn2nc(N3CCN(c4ccccc4)CC3)ccc2=O)c(OC)c1,"inconclusive: 20.6 µM [activator, partial curve, poor fit]",–
Clc1ccc(SCc2cn3ccccc3n2)cc1,"inconclusive: 20.6 µM [activator, partial curve]",–
CCN(CC)S(=O)(=O)c1ccc(C)c(NC(=O)CN2CCN(Cc3ccccc3)CC2)c1,inactive,–
CC(=O)c1c(C)[nH]c(C(=O)OCC(=O)Nc2ccc(Cl)cc2[N+](=O)[O-])c1C,active: 20.6 µM,–
COc1ccc(/C=N/NC(=O)c2ccco2)cc1Cn1nc(C)c([N+](=O)[O-])c1C,active: 16.4 µM,–
CCCCN(CCCC)c1ccc(C(=O)c2ccccc2C(=O)O)c(O)c1,"inconclusive: 0.461 µM [falling, full curve]",–
COC(=O)c1cccc(NC(=O)c2nsc3ccccc23)c1,inactive,–

# Entries of single compounds as entered above. Order of values: Potency | activity change, negative = inhibition
# COc1ccc(CNC(=O)Cn2nc(N3CCN(c4ccccc4)CC3)ccc2=O)c(OC)c1 as listed: inconclusive: 20.6 µM [activator, partial curve, poor fit] | –
# CCN1/C(=C/c2ccc3ccccc3[n+]2CC)C=Cc2ccccc21 as listed: active: 2.91 µM | –
# Clc1ccc(SCc2cn3ccccc3n2)cc1 as listed: inconclusive: 20.6 µM [activator, partial curve] | –

# Continuation.

Compound,Potency,"activity change, negative = inhibition"
COc1ccc(CCNC(=O)c2ccc3c(c2)N(Cc2ccccc2F)C(=O)c2ccccc2S3=O)cc1OC (stereo not drawn),"inconclusive: 6.51 µM [activator, single point]",–
CC1CC(C)CN(C(=O)c2ccc3c(c2)N(Cc2ccccc2)CCS3)C1 (stereo not drawn),"inconclusive: 32.6 µM [falling, single point]",–
CCc1ccc(NC(=O)C(C)n2nc(C)c([N+](=O)[O-])c2C)cc1 (stereo not drawn),inactive,–
CCOc1ccccc1CNC(=O)CCc1c(C)nn(-c2ccc(N3CCOCC3)nn2)c1C,"inconclusive: 9.2 µM [activator, partial curve, poor fit]",–
O=C(CN1C(=O)COc2ccc(S(=O)(=O)N3CCCC3)cc21)N1CCN(c2cccc(C(F)(F)F)c2)CC1,inactive,–
O=C(NCC1COc2ccccc2O1)c1cc2ccccc2o1 (stereo not drawn),"inconclusive: 13 µM [activator, partial curve, poor fit]",–
O=C(Nc1ccc(OCC(F)(F)C(F)F)c(C(F)(F)F)c1)c1ccc(Cl)cc1,"inconclusive: 29.1 µM [falling, single point]",–
CCOC(=O)c1ccc(NS(=O)(=O)c2ccc(SC)cc2)cc1,active: 23.1 µM,–
COc1ccc2cc3cc(C(=O)N4CCN(Cc5ccc6c(c5)OCO6)CC4)oc3nc2c1,"inconclusive: 5.17 µM [falling, partial curve, poor fit]",–
Cc1cc2c3c(c1C)C1(C(=O)N3C(C)(C)CC2C)C(C#N)=C(N)OC2=C1C(=O)CC(C)(C)C2 (stereo not drawn),"inconclusive: 9.2 µM [falling, single point]",–
CCN(CC)S(=O)(=O)c1ccc(C(=O)NCCSc2c(-c3ccc(C)cc3)[nH]c3ccccc23)cc1,–,inactive: -23% [at 9.27 µM]
O=Cc1cn(CCOc2ccccc2F)c2ccccc12,"inconclusive: 16.4 µM [falling, partial curve, poor fit]",–
Cc1cc(C)c[n+](CC(=O)c2ccccc2)c1,"inconclusive: 5.17 µM [falling, partial curve, poor fit]",–
CC1(C)Oc2ccc3ccc(=O)oc3c2/C(=C/O)C1=O,"inconclusive: 20.6 µM [falling, single point]",–
Cc1cc(Cl)ccc1NC(=S)NCCCO,inactive,–
CCN1CCN(C(=O)Cn2c(-c3cccs3)cc3ccccc32)CC1,inactive,–
COC(=O)c1cc(Cl)c(NS(=O)(=O)c2ccccc2)cc1OC,"inconclusive: 29.1 µM [falling, single point]",–
O=c1oc(-c2cccs2)nc2sc3c(c12)CCCC3,inactive,–
COc1cccc(OCc2cc(=O)n3c(-c4ccccc4)csc3n2)c1,"inconclusive: 18.4 µM [activator, partial curve]",–
CCOC(=O)c1sc(=S)n(C)c1NC(=O)c1ccc(F)cc1,active: 23.1 µM,–
COc1ccc(-c2nn3c(-c4cc(-c5ccccc5)n[nH]4)nnc3s2)cc1,active: 23.1 µM,–
O=C(Cc1ccc([N+](=O)[O-])cc1)N1CCCCCC1,inactive,–
